# From paper PMC10044144
# Molecular target: MoMih1 (pGADT7-MoMih1, yeast two-hybrid fusion) (Magnaporthe oryzae) (UniProt G4N0K3)
# Assay: two-hybrid
substance,measurement,value
"MoCdc28 (pGBKT7-MoCdc28, yeast two-hybrid fusion) (from UniProt G4MZ20)",binding,binds

# Results are given in words; binding and its absence hold for the method and conditions named. Binding calls can cover weak binding; strength is not graded here.
